Our source for the binding values is article doi:10.1101/137711.

No constants are given. Whether binding was seen depends on the method and setting. Some results given as binding are weak or reduced against the parent protein; the word gives no strength. Sequences can lack the tags named with a protein.

The target in the assay is T1, Brn1 kleisin subunit of condensin, Brn1-HA3-His12 (S. cerevisiae) (UniProt P38170).
T1 sequence: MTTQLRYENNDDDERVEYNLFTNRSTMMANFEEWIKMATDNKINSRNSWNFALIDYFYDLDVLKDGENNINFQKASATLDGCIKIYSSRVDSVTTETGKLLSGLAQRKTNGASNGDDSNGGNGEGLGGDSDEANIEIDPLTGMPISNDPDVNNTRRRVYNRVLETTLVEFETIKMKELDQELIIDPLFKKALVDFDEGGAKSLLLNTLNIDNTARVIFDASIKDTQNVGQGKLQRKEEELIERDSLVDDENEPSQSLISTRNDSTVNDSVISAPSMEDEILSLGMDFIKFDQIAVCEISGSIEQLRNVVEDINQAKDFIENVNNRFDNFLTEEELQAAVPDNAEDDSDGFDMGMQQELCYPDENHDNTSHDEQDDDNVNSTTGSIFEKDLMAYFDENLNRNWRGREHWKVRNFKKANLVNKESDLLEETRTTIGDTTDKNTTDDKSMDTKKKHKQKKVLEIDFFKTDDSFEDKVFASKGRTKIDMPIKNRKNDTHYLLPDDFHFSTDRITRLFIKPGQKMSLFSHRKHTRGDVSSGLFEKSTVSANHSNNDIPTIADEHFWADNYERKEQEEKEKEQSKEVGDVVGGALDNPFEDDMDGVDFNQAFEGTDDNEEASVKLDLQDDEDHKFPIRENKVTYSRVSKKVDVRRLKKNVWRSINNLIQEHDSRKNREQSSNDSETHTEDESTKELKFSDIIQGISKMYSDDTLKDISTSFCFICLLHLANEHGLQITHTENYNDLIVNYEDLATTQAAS
Description: tandem affinity co-purification + SEC.

B1: Smc4 subunit of condensin, Smc4-StrepII3 (wild-type) (protein, UniProt Q12267 1-1418)
chain: MSDSPLSKRQKRKSAQEPELSLDQGDAEEDSQVENRVNLSENTPEPDLPALEASYSKSYTPRKLVLSSGENRYAFSQPTNSTTTSLHVPNLQPPKTSSRGRDHKSYSQSPPRSPGRSPTRRLELLQLSPVKNSRVELQKIYDRHQSSSKQQSRLFINELVLENFKSYAGKQVVGPFHTSFSAVVGPNGSGKSNVIDSMLFVFGFRANKMRQDRLSDLIHKSEAFPSLQSCSVAVHFQYVIDESSGTSRIDEEKPGLIITRKAFKNNSSKYYINEKESSYTEVTKLLKNEGIDLDHKRFLILQGEVENIAQMKPKAEKESDDGLLEYLEDIIGTANYKPLIEERMGQIENLNEVCLEKENRFEIVDREKNSLESGKETALEFLEKEKQLTLLRSKLFQFKLLQSNSKLASTLEKISSSNKDLEDEKMKFQESLKKVDEIKAQRKEIKDRISSCSSKEKTLVLERRELEGTRVSLEERTKNLVSKMEKAEKTLKSTKHSISEAENMLEELRGQQTEHETEIKDLTQLLEKERSILDDIKLSLKDKTKNISAEIIRHEKELEPWDLQLQEKESQIQLAESELSLLEETQAKLKKNVETLEEKILAKKTHKQELQDLILDLKKKLNSLKDERSQGEKNFTSAHLKLKEMQKVLNAHRQRAMEARSSLSKAQNKSKVLTALSRLQKSGRINGFHGRLGDLGVIDDSFDVAISTACPRLDDVVVDTVECAQHCIDYLRKNKLGYARFILLDRLRQFNLQPISTPENVPRLFDLVKPKNPKFSNAFYSVLRDTLVAQNLKQANNVAYGKKRFRVVTVDGKLIDISGTMSGGGNHVAKGLMKLGTNQSDKVDDYTPEEVDKIERELSERENNFRVASDTVHEMEEELKKLRDHEPDLESQISKAEMEADSLASELTLAEQQVKEAEMAYVKAVSDKAQLNVVMKNLERLRGEYNDLQSETKTKKEKIKGLQDEIMKIGGIKLQMQNSKVESVCQKLDILVAKLKKVKSASKKSGGDVVKFQKLLQNSERDVELSSDELKVIEEQLKHTKLALAENDTNMNETLNLKVELKEQSEQLKEQMEDMEESINEFKSIEIEMKNKLEKLNSLLTYIKSEITQQEKGLNELSIRDVTHTLGMLDDNKMDSVKEDVKNNQELDQEYRSCETQDESEIKDAETSCDNYHPMNIDETSDEVSRGIPRLSEDELRELDVELIESKINELSYYVEETNVDIGVLEEYARRLAEFKRRKLDLNNAVQKRDEVKEQLGILKKKRFDEFMAGFNIISMTLKEMYQMITMGGNAELELVDSLDPFSEGVTFSVMPPKKSWRNITNLSGGEKTLSSLALVFALHKYKPTPLYVMDEIDAALDFRNVSIVANYIKERTKNAQFIVISLRNNMFELAQQLVGVYKRDNRTKSTTIKNIDILNRT
In the case of B1, the binding result was “binds”.

B2: Smc4(Q302L)-StrepII3, ATPase-deficient Q-loop mutant (protein, UniProt Q12267 1-1418)
chain: MSDSPLSKRQKRKSAQEPELSLDQGDAEEDSQVENRVNLSENTPEPDLPALEASYSKSYTPRKLVLSSGENRYAFSQPTNSTTTSLHVPNLQPPKTSSRGRDHKSYSQSPPRSPGRSPTRRLELLQLSPVKNSRVELQKIYDRHQSSSKQQSRLFINELVLENFKSYAGKQVVGPFHTSFSAVVGPNGSGKSNVIDSMLFVFGFRANKMRQDRLSDLIHKSEAFPSLQSCSVAVHFQYVIDESSGTSRIDEEKPGLIITRKAFKNNSSKYYINEKESSYTEVTKLLKNEGIDLDHKRFLILLGEVENIAQMKPKAEKESDDGLLEYLEDIIGTANYKPLIEERMGQIENLNEVCLEKENRFEIVDREKNSLESGKETALEFLEKEKQLTLLRSKLFQFKLLQSNSKLASTLEKISSSNKDLEDEKMKFQESLKKVDEIKAQRKEIKDRISSCSSKEKTLVLERRELEGTRVSLEERTKNLVSKMEKAEKTLKSTKHSISEAENMLEELRGQQTEHETEIKDLTQLLEKERSILDDIKLSLKDKTKNISAEIIRHEKELEPWDLQLQEKESQIQLAESELSLLEETQAKLKKNVETLEEKILAKKTHKQELQDLILDLKKKLNSLKDERSQGEKNFTSAHLKLKEMQKVLNAHRQRAMEARSSLSKAQNKSKVLTALSRLQKSGRINGFHGRLGDLGVIDDSFDVAISTACPRLDDVVVDTVECAQHCIDYLRKNKLGYARFILLDRLRQFNLQPISTPENVPRLFDLVKPKNPKFSNAFYSVLRDTLVAQNLKQANNVAYGKKRFRVVTVDGKLIDISGTMSGGGNHVAKGLMKLGTNQSDKVDDYTPEEVDKIERELSERENNFRVASDTVHEMEEELKKLRDHEPDLESQISKAEMEADSLASELTLAEQQVKEAEMAYVKAVSDKAQLNVVMKNLERLRGEYNDLQSETKTKKEKIKGLQDEIMKIGGIKLQMQNSKVESVCQKLDILVAKLKKVKSASKKSGGDVVKFQKLLQNSERDVELSSDELKVIEEQLKHTKLALAENDTNMNETLNLKVELKEQSEQLKEQMEDMEESINEFKSIEIEMKNKLEKLNSLLTYIKSEITQQEKGLNELSIRDVTHTLGMLDDNKMDSVKEDVKNNQELDQEYRSCETQDESEIKDAETSCDNYHPMNIDETSDEVSRGIPRLSEDELRELDVELIESKINELSYYVEETNVDIGVLEEYARRLAEFKRRKLDLNNAVQKRDEVKEQLGILKKKRFDEFMAGFNIISMTLKEMYQMITMGGNAELELVDSLDPFSEGVTFSVMPPKKSWRNITNLSGGEKTLSSLALVFALHKYKPTPLYVMDEIDAALDFRNVSIVANYIKERTKNAQFIVISLRNNMFELAQQLVGVYKRDNRTKSTTIKNIDILNRT
Take B2: the binding entry is “binds”.
